Assay results reported in PubChem BioAssay AID330 (DTP/NCI, 2004).
The list does not hold the whole screen: it is rich in T/C values a quarter to a half above the control, in often repeated tests (any T/C) and in doses without a T/C. Other doses and runs of a compound stand elsewhere. T/C is the treated group as % of the vehicle group. Some doses have a count of surviving animals in place of a T/C: the source holds a T/C of zero for them, seemingly a mark for toxic or unscored doses. Some survivor counts are full or nearly so, which does not show that the dose was tolerated: the source hardly ever lists a survival T/C far under the control, and the zero likely stands for such cases as well. Counts of survivors are from the toxicity check (mostly the fifth day) where no day follows; animals may have died later. Schedule codes are those of the source, read here as Q, the interval in days (D) or hours (H), X, the number of doses. Some doses were run more than once; the values are given in rising order. For survival time, the PubChem record calls one and a half times the control and up active, and a quarter to a half above the control has no call in these data; cut-offs in other NCI protocols can differ. Some T/C values carry the count of animals alive at the toxicity check (mostly the fifth day); where none is given, no animal had died by that day.

Test system: P388 leukemia ip, CD2F1 mice, survival T/C
Experiment: NCI In Vivo Anticancer Drug Screen. Data for tumor model P388 Leukemia (intraperitoneal) in CD2F1 (CDF1) mice
Settings: T/C endpoint: median survival time, higher T/C = longer survival
[1] = dose: 100.0 mg/kg/injection, schedule: Q01DX005 (ip), vehicle: saline + Tween-80 + alcohol
[2] = dose: 200.0 mg/kg/injection, schedule: Q01DX005 (ip), vehicle: saline + Tween-80 + alcohol
[3] = dose: 100.0 mg/kg/injection, schedule: Q01DX005 (ip), vehicle: Klucel (hydroxypropylcellulose) (HPC)
[4] = dose: 200.0 mg/kg/injection, schedule: Q01DX005 (ip), vehicle: Klucel (hydroxypropylcellulose) (HPC)
[5] = dose: 100.0 mg/kg/injection, schedule: Q01DX001 (ip), vehicle: Klucel (hydroxypropylcellulose) (HPC)
[6] = dose: 200.0 mg/kg/injection, schedule: Q01DX001 (ip), vehicle: Klucel (hydroxypropylcellulose) (HPC)
[7] = dose: 400.0 mg/kg/injection, schedule: Q01DX001 (ip), vehicle: Klucel (hydroxypropylcellulose) (HPC)
[8] = dose: 60.0 mg/kg/injection, schedule: Q01DX005 (ip), vehicle: saline with Tween-80
[9] = dose: 240.0 mg/kg/injection, schedule: Q01DX005 (ip), vehicle: saline with Tween-80
[10] = dose: 50.0 mg/kg/injection, schedule: Q01DX005 (ip), vehicle: saline with Tween-80
[11] = dose: 200.0 mg/kg/injection, schedule: Q01DX005 (ip), vehicle: saline with Tween-80

Nc1ncnc2c1c(C(=O)O)cn2C1OC(CO)C(O)C1O (centres undefined)
T/C (dose: 25.0 mg/kg/injection, schedule: Q01DX009 (ip), vehicle: saline with Tween-80): 136 % of control
T/C (dose: 50.0 mg/kg/injection, schedule: Q04DX003 (ip), vehicle: saline with Tween-80): 125 % of control
T/C (dose: 100.0 mg/kg/injection, schedule: Q04DX003 (ip), vehicle: saline with Tween-80): 125 and 135 % of control
survivor count (dose: 200.0 mg/kg/injection, schedule: Q04DX003 (ip), vehicle: saline with Tween-80): 3 of 6
survivor count (dose: 400.0 mg/kg/injection, schedule: Q04DX003 (ip), vehicle: saline with Tween-80): 0 of 6

N#CC1OC1c1ccccn1 (centres undefined)
survivor count (dose: 25.0 mg/kg/injection, schedule: Q01DX005 (ip), vehicle: saline + Tween-80 + alcohol): 0 of 6
survivor count (dose: 50.0 mg/kg/injection, schedule: Q01DX005 (ip), vehicle: saline + Tween-80 + alcohol): 0 of 6
survivor count [1]: 0 of 6
survivor count [2]: 0 of 6

O=C(CS(=O)(=O)O)c1ccccc1
survivor count (dose: 200.0 mg/kg/injection, schedule: Q04DX002 (ip), vehicle: saline with Tween-80): 0 of 6
survivor count (dose: 400.0 mg/kg/injection, schedule: Q04DX002 (ip), vehicle: saline with Tween-80): 0 of 6

CCN(CC)CCN(C(=O)C1c2ccccc2Oc2ccccc21)c1ccccc1
survivor count [3]: 0 of 5
survivor count [4]: 0 of 5

O=S(=O)(O)C1=CC(=N\Cl)/C=CC/1=N/Cl
T/C [1]: 127 % of control
T/C [2]: 144 % of control [5 of 6 alive]
survivor count (dose: 400.0 mg/kg/injection, schedule: Q01DX005 (ip), vehicle: saline + Tween-80 + alcohol): 0 of 6

NC(CCl)=NCCOC12CC3CC(CC(C3)C1)C2
survivor count (dose: 120.0 mg/kg/injection, schedule: Q01DX005 (ip), vehicle: saline): 3 of 6
survivor count (dose: 240.0 mg/kg/injection, schedule: Q01DX005 (ip), vehicle: saline): 0 of 6

O=C(O)CNc1ccccc1.[Cu+2]
survivor count (dose: 50.0 mg/kg/injection, schedule: Q01DX001 (ip), vehicle: Klucel (hydroxypropylcellulose) (HPC)): 2 of 6
survivor count [5]: 0 of 6
survivor count [6]: 0 of 6
survivor count [7]: 0 of 6

CN(C)c1ccc(N(C)C)c(C(O)(c2ccccc2)c2ccccc2)c1
survivor count (dose: 100.0 mg/kg/injection, schedule: Q01DX009 (ip), vehicle: saline with Tween-80): 6 of 6
survivor count (dose: 200.0 mg/kg/injection, schedule: Q01DX009 (ip), vehicle: saline with Tween-80): 6 of 6

NC(=O)SCC(N)C(=O)O (centres undefined)
T/C (dose: 100.0 mg/kg/injection, schedule: Q01DX009 (ip), vehicle: saline): 125 and 129 % of control
T/C (dose: 200.0 mg/kg/injection, schedule: Q01DX009 (ip), vehicle: saline with Tween-80, evaluated on day 20): 128 % of control
T/C (dose: 200.0 mg/kg/injection, schedule: Q01DX009 (ip), vehicle: saline with Tween-80, evaluated on day 30): 132 % of control
T/C (dose: 200.0 mg/kg/injection, schedule: Q01DX009 (ip), vehicle: saline): 127 and 148 % of control
T/C (dose: 200.0 mg/kg/injection, schedule: Q01DX009 (ip), vehicle: suspension in saline): 125 % of control
survivor count (dose: 400.0 mg/kg/injection, schedule: Q01DX009 (ip), vehicle: saline with Tween-80): 6 of 6
T/C (dose: 400.0 mg/kg/injection, schedule: Q01DX009 (ip), vehicle: suspension in saline): 143 % of control
survivor count (dose: 600.0 mg/kg/injection, schedule: Q01DX009 (ip), vehicle: saline with Tween-80): 5 of 6
survivor count (dose: 600.0 mg/kg/injection, schedule: Q01DX009 (ip), vehicle: saline): 3 of 6
survivor count (dose: 600.0 mg/kg/injection, schedule: Q01DX009 (ip), vehicle: suspension in saline): 5 of 6

C[CH2][Sn]([CH2]C)([O]P(=O)(C[Si](C)(C)C)c1ccccc1)[O]P(=O)(C[Si](C)(C)C)c1ccccc1 (centres undefined)
T/C [8]: 141 % of control [4 of 6 alive]
survivor count [8]: 3 of 6
survivor count (dose: 120.0 mg/kg/injection, schedule: Q01DX005 (ip), vehicle: saline with Tween-80): 0 of 6
survivor count [9]: 0 of 6

CSC(=S)N/N=C(\C)c1ccc[nH]1
survivor count [4]: 6 of 6

CCOP(=O)(O)OCC.CCOP(=O)(O)OCC.[O]=[V]
survivor count [7]: 1 of 6

CC1(C)C[C@@]2(F)C(=O)NC(=O)N[C@@H]12
survivor count [5]: 1 of 6
survivor count [6]: 0 of 6
survivor count [7]: 0 of 6

CCCCCC(CN(C)C)C(=O)CC(SCC)c1ccc(Cl)c(Cl)c1 (centres undefined)
survivor count (dose: 100.0 mg/kg/injection, schedule: Q01DX009 (ip), vehicle: water): 3 of 6
survivor count (dose: 200.0 mg/kg/injection, schedule: Q01DX009 (ip), vehicle: water): 0 of 6

COc1cc2c(cc1O)N=C[C@@H]1CCC(O)N1C2=O (mixture of isomers)
T/C (dose: 1.0 mg/kg/injection, schedule: Q01DX009 (ip), vehicle: saline): 134 % of control
T/C (dose: 2.0 mg/kg/injection, schedule: Q01DX009 (ip), vehicle: saline): 134 % of control
T/C (dose: 4.0 mg/kg/injection, schedule: Q01DX009 (ip), vehicle: saline): 147 % of control
survivor count (dose: 8.0 mg/kg/injection, schedule: Q01DX009 (ip), vehicle: saline): 5 of 6
survivor count (dose: 16.0 mg/kg/injection, schedule: Q01DX009 (ip), vehicle: saline): 0 of 6
survivor count (dose: 32.0 mg/kg/injection, schedule: Q01DX009 (ip), vehicle: saline): 0 of 6

S=C1N(c2ccc(Cl)cc2)C2=C(N=Nc3ccccc3Cl)C(=Nc3ccccc3S2)N1c1ccccn1
T/C [10]: 126 % of control
survivor count [11]: 3 of 6

CN(C)c1ncnc2c1ccn2C1OC(CO)C(O)C1O (centres undefined)
survivor count (dose: 50.0 mg/kg/injection, schedule: Q01DX005 (ip), vehicle: Klucel (hydroxypropylcellulose) (HPC)): 4 of 6
survivor count [3]: 0 of 2
survivor count [4]: 0 of 6

CCOc1c(N=Nc2ccccc2Cl)c(-c2ccccc2)nn1C(=S)S
survivor count [11]: 0 of 6

COc1ccc(-c2cc3cc(CCCOC4OC(COC5OCC(O)C(O)C5O)C(O)C(O)C4O)cc(OC)c3o2)cc1OC (centres undefined)
survivor count (dose: 75.0 mg/kg/injection, schedule: Q01DX005 (ip), vehicle: Klucel (hydroxypropylcellulose) (HPC)): 6 of 6
survivor count (dose: 150.0 mg/kg/injection, schedule: Q01DX005 (ip), vehicle: Klucel (hydroxypropylcellulose) (HPC)): 6 of 6

CCOC(=O)Oc1ccc[nH]c1=O
survivor count (dose: 50.0 mg/kg/injection, schedule: Q01DX009 (ip), vehicle: saline): 6 of 6

Nc1nc(=S)c2ncn(C3OC(CO)CC3O)c2[nH]1 (centres undefined)
T/C (dose: 37.5 mg/kg/injection, schedule: Q04DX003 (ip), vehicle: saline): 133 % of control
T/C (dose: 40.0 mg/kg/injection, schedule: Q04DX003 (ip), vehicle: saline): 141 % of control
T/C (dose: 60.0 mg/kg/injection, schedule: Q04DX003 (ip), vehicle: saline): 133 % of control
T/C (dose: 75.0 mg/kg/injection, schedule: Q04DX003 (ip), vehicle: saline): 129 % of control

Nc1nc2c(c(-c3nc(N)nc4c3Cc3ccccc3-4)n1)Cc1ccccc1-2
survivor count [9]: 2 of 6

CCCCN=NNCCCC
T/C (dose: 25.0 mg/kg/injection, schedule: Q01DX005 (ip), vehicle: saline with Tween-80): 129 % of control
survivor count [10]: 5 of 5
survivor count (dose: 100.0 mg/kg/injection, schedule: Q01DX005 (ip), vehicle: saline with Tween-80): 1 of 5 and 2 of 6
survivor count [11]: 0 of 6
